Peptide text beside a SMILES is read from it.

For this series, the system named is all bacterial strains. As to the kind of experiment: Average MIC over all strains and relative selective index. The format is cell-based. To be noted: higher = higher cell selectivity. Here is the method: The antibacterial abilities of the peptides (T. ni cecropin, cecropin A, polymyxin B, colistin, and melittin) were determined using the broth dilution method as previously reported. The peptides dissolved at 10 mg/mL in deionized water were serially diluted from 64 μM to 0.5 μM in 96-well plates using Mueller–Hinton (MH) broth, and bacteria cultured to exponential growth were added at 2 × 10^5 cells/mL. The group of bacteria that grew untreated in the broth was set as the positive control, and the uninoculated broth as the negative control. Dissolved peptides are colorless and equal to the OD value of the medium only. After 16 h incubation at 37 °C, the absorbance at 600 nm was measured using a SpectraMAX microplate reader (Molecular Devices, San Jose, CA, USA).
On to `CC[C@H](C)CCCCC(=O)N[C@@H](CCN)C(=O)N[C@H](C(=O)N[C@@H](CCN)C(=O)N[C@H]1CCNC(=O)[C@H]([C@@H](C)O)NC(=O)[C@H](CCN)NC(=O)[C@H](CCN)NC(=O)[C@H](CC(C)C)NC(=O)[C@@H](CC(C)C)NC(=O)[C@H](CCN)NC1=O)[C@@H](C)O` [colistin] (HELM PEPTIDE1{[CC[C@H](C)CCCCC(=O)[*:2]].[Dab].T.[Dab].[Dab].[Dab].[dL].L.[Dab].[Dab].T}$PEPTIDE1,PEPTIDE1,5:R3-11:R2$$$V2.0; N-terminus assumed; bridges inferred), for which the “Relative selective index (HC10/GM)” value worked out at 5.93.

Take `CC[C@H](C)CCCCC(=O)N[C@@H](CCN)C(=O)N[C@H](C(=O)N[C@@H](CCN)C(=O)N[C@H]1CCNC(=O)[C@H]([C@@H](C)O)NC(=O)[C@H](CCN)NC(=O)[C@H](CCN)NC(=O)[C@H](CC(C)C)NC(=O)[C@@H](Cc2ccccc2)NC(=O)[C@H](CCN)NC1=O)[C@@H](C)O` [polymyxin B] (HELM PEPTIDE1{[CC[C@H](C)CCCCC(=O)[*:2]].[Dab].T.[Dab].[Dab].[Dab].[dF].L.[Dab].[Dab].T}$PEPTIDE1,PEPTIDE1,5:R3-11:R2$$$V2.0; N-terminus assumed; bridges inferred): the “Relative selective index (HC10/GM)” value came to 11.19.

`CC[C@H](C)[C@H](NC(=O)CN)C(=O)NCC(=O)N[C@@H](C)C(=O)N[C@H](C(=O)N[C@@H](CC(C)C)C(=O)N[C@@H](CCCCN)C(=O)N[C@H](C(=O)N[C@@H](CC(C)C)C(=O)N[C@H](C(=O)N[C@H](C(=O)NCC(=O)N[C@@H](CC(C)C)C(=O)N1CCC[C@H]1C(=O)N[C@@H](C)C(=O)N[C@@H](CC(C)C)C(=O)N[C@H](C(=O)N[C@@H](CO)C(=O)N[C@@H](Cc1c[nH]c2ccccc12)C(=O)N[C@H](C(=O)N[C@@H](CCCCN)C(=O)N[C@@H](CCCNC(=N)N)C(=O)N[C@@H](CCCCN)C(=O)N[C@@H](CCCNC(=N)N)C(=O)N[C@@H](CCC(N)=O)C(=O)N[C@@H](CCC(N)=O)C(N)=O)[C@@H](C)CC)[C@@H](C)CC)[C@@H](C)O)[C@@H](C)O)C(C)C)C(C)C` [melittin]: the “Relative selective index (HC10/GM)” value came to 0.22.

For the origin of these results see paper PMC10304470, “Characterization of the Antimicrobial Activities of Trichoplusia ni Cecropin A as a High-Potency Therapeutic against Colistin-Resistant Escherichia coli” (Pharmaceutics, 2023).
